Assay [1] concerns the target T1, C-terminally 10 x His-tagged EBI3 (human) (UniProt Q14213).
T1 sequence: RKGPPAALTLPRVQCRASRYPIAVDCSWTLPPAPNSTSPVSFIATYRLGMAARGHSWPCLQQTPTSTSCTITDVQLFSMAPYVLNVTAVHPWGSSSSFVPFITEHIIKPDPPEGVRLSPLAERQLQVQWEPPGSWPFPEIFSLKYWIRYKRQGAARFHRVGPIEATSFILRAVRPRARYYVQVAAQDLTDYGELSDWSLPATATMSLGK
As to the kind of experiment: co-IP; concentrated, pre-cleared supernatants of p19 and EBI3-His co-transfected HEK293FT cells; anti-His antibody and Protein G sepharose, PBS-0.05% Tween 20, 4°C; p19 Western blot.

By UniProt entry, the sequences of proteins in these tests, tags left out. Residues count along the entry.
UniProt Q9NPF7, residues 20-189: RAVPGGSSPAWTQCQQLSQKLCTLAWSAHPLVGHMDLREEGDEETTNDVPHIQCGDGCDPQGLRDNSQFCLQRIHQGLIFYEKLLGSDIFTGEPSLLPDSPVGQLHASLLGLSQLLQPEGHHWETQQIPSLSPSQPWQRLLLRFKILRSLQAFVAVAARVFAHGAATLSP
UniProt P29460, residues 23-328: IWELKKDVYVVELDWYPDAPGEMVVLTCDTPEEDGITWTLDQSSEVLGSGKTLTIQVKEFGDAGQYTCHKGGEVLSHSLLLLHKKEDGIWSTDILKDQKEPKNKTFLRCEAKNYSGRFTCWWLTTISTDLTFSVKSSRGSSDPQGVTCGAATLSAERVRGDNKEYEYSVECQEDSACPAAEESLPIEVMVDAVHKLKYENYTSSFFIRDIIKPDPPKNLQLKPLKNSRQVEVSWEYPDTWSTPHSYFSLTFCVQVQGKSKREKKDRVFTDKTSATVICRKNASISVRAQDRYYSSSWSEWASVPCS

Assay [2] addresses human IL-23 p19 (aa20-189) (human) (UniProt Q9NPF7). As to the kind of experiment: ELISA; commercial human IL-23 MAX ELISA (Biolegend) on supernatants of p19 and/or EBI3-His transfected HEK293FT cells. (ELISA stands for enzyme-linked immunosorbent assay.)

No constants are given. Whether binding was seen depends on the method and setting. For some assays here: In cells and extracts the contact can be indirect. Some entries that bind do so weakly or less than the wild type. For some assays here: Tags and fused reporters may be left off the sequences shown.

As for “human IL-23 p19 (aa20-189) (from UniProt Q9NPF7 20-189)”, the binding result in assay [1] is on record as “binds”. In the case of “endogenous p40 (from UniProt P29460 23-328)”, the binding entry in assay [2] is given as “binds”.
